Measurements taken from PubChem BioAssay AID256 (DTP/NCI, 2004).
The list is a part of this screen's results and no random one: it gathers tests that were run many times, whatever their T/C, doses with no T/C, and many T/C values between a quarter and a half above the control. Other doses and runs of a compound stand elsewhere. T/C is the treated group as % of the vehicle group. Some doses have a count of surviving animals in place of a T/C: the source files T/C as zero there, which appears to mark a toxic dose or a test without result, not a measured value. Some doses without a T/C left all or most animals alive at the check, yet need not have been tolerated: survival well below the control is almost never listed, so the zero probably covers shortened survival too. Counts of survivors are from the toxicity check (mostly the fifth day) where no day follows; animals may have died later. Schedule codes are those of the source, taken here to give the interval after Q, in days (D) or hours (H), and the number of doses after X. Some doses were run more than once; the results are listed from low to high. For survival time, this PubChem deposit counts one and a half times the control or more as active, and values a quarter to a half above the control carry no call in these data; other NCI protocols may use other cut-offs. Some T/C values carry the count of animals alive at the toxicity check (mostly the fifth day); without a count, all were alive then.

Tested on: CD2F1 mice, L1210 leukemia ip, survival T/C
Assay: NCI In Vivo Anticancer Drug Screen. Data for tumor model L1210 Leukemia (intraperitoneal) in CD2F1 (CDF1) mice
Details: higher T/C = longer survival
Procedure, shortened: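 Antitumor effect is scored in animals hosting a serially transplanted tumor. Values compare compound-dosed animals against vehicle-only controls as a simple quotient.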

[1] = T/C endpoint: mean survival time, dose: 100.0 mg/kg/injection, schedule: Q01DX009 (ip), vehicle: saline with Tween-80
[2] = T/C endpoint: mean survival time, dose: 200.0 mg/kg/injection, schedule: Q01DX009 (ip), vehicle: saline with Tween-80
[3] = T/C endpoint: mean survival time, dose: 400.0 mg/kg/injection, schedule: Q01DX009 (ip), vehicle: saline with Tween-80
[4] = T/C endpoint: mean survival time, dose: 400.0 mg/kg/injection, schedule: Q01DX001 (ip), vehicle: saline with Tween-80
[5] = T/C endpoint: mean survival time, dose: 200.0 mg/kg/injection, schedule: Q04DX002 (ip), vehicle: saline with Tween-80
[6] = T/C endpoint: mean survival time, dose: 400.0 mg/kg/injection, schedule: Q04DX002 (ip), vehicle: saline with Tween-80
[7] = T/C endpoint: mean survival time, dose: 200.0 mg/kg/injection, schedule: Q01DX001 (ip), vehicle: saline
[8] = T/C endpoint: mean survival time, dose: 400.0 mg/kg/injection, schedule: Q01DX001 (ip), vehicle: saline
[9] = T/C endpoint: mean survival time, dose: 100.0 mg/kg/injection, schedule: Q01DX009 (ip), vehicle: saline
[10] = T/C endpoint: mean survival time, dose: 400.0 mg/kg/injection, schedule: Q04DX003 (ip), vehicle: saline with Tween-80

CS(=O)(=O)OCCNC(=O)N(CCCl)N=O
T/C (T/C endpoint: mean survival time, dose: 1.56 mg/kg/injection, schedule: Q01DX009 (ip), vehicle: water): 125 % of control | T/C (T/C endpoint: mean survival time, dose: 5.0 mg/kg/injection, schedule: Q01DX001 (ip), vehicle: distilled water + Tween-80): 127 % of control | T/C (T/C endpoint: mean survival time, dose: 10.0 mg/kg/injection, schedule: Q01DX001 (ip), vehicle: distilled water + Tween-80, evaluated on day 30): 141 % of control | T/C (T/C endpoint: mean survival time, dose: 10.0 mg/kg/injection, schedule: Q01DX001 (ip), vehicle: distilled water + Tween-80, evaluated on day 45): 141 % of control | survivor count (T/C endpoint: mean survival time, dose: 12.5 mg/kg/injection, schedule: Q01DX009 (ip), vehicle: water): 6 of 6 | survivor count (T/C endpoint: mean survival time, dose: 25.0 mg/kg/injection, schedule: Q01DX009 (ip), vehicle: water): 4 of 6 | survivor count (T/C endpoint: mean survival time, dose: 50.0 mg/kg/injection, schedule: Q01DX009 (ip), vehicle: water): 0 of 6 | survivor count (T/C endpoint: mean survival time, dose: 80.0 mg/kg/injection, schedule: Q01DX001 (ip), vehicle: distilled water + Tween-80): 4 of 6 | survivor count (T/C endpoint: mean survival time, dose: 100.0 mg/kg/injection, schedule: Q01DX009 (ip), vehicle: water): 0 of 6 | survivor count (T/C endpoint: mean survival time, dose: 200.0 mg/kg/injection, schedule: Q01DX009 (ip), vehicle: water): 0 of 6

CC1CC(C)(C)[N+]2=C(CCCC2)O1 (centres undefined)
survivor count [1]: 0 of 6 | survivor count [2]: 0 of 6 | survivor count [3]: 0 of 6

CCOC(=O)Nc1cc(NCc2ccccc2)c(N)c(N)n1
survivor count [4]: 1 of 6

COC(=O)C(N)CSCSCc1ccccc1 (centres undefined)
survivor count (T/C endpoint: mean survival time, dose: 200.0 mg/kg/injection, schedule: Q01DX005 (ip), vehicle: water): 1 of 6 | survivor count (T/C endpoint: mean survival time, dose: 400.0 mg/kg/injection, schedule: Q01DX005 (ip), vehicle: water): 0 of 6

N#C/C(=C\C1CCCCC1Cl)C1CCC([N+](=O)[O-])CC1 (centres undefined)
survivor count [5]: 3 of 3

Cc1ccc(NC(=O)CI)cc1
survivor count (T/C endpoint: mean survival time, dose: 200.0 mg/kg/injection, schedule: Q04DX002 (ip), vehicle: other): 0 of 3 | survivor count (T/C endpoint: mean survival time, dose: 400.0 mg/kg/injection, schedule: Q04DX002 (ip), vehicle: other): 0 of 3

CCNC(=S)NN
survivor count (T/C endpoint: mean survival time, dose: 25.0 mg/kg/injection, schedule: Q01DX009 (ip), vehicle: saline with Tween-80): 0 of 3 | survivor count (T/C endpoint: mean survival time, dose: 50.0 mg/kg/injection, schedule: Q01DX009 (ip), vehicle: saline with Tween-80): 1 of 3 | survivor count [1]: 0 of 3 | survivor count [2]: 0 of 3

C=CCCCCC(=O)c1ccccc1
survivor count [6]: 1 of 3

CCN(CCN(C)C(C)(C)C(C)(C)C)C(=O)C(O)(c1ccccc1)c1ccccc1
survivor count [2]: 0 of 3

CCCCC(CC)CNC(=O)CI (centres undefined)
survivor count [7]: 1 of 4 | survivor count [8]: 0 of 4

CC12CCC3C(CC=C4CC(OC(=N)N)CCC43C)C1CCC2=O (centres undefined)
survivor count (T/C endpoint: mean survival time, dose: 300.0 mg/kg/injection, schedule: Q01DX001 (ip), vehicle: saline): 0 of 6

CNC(=O)ON(C(C)=O)C(=O)NC
survivor count [9]: 2 of 6 and 3 of 6 | survivor count (T/C endpoint: mean survival time, dose: 200.0 mg/kg/injection, schedule: Q01DX009 (ip), vehicle: saline): 0 of 6 | survivor count (T/C endpoint: mean survival time, dose: 400.0 mg/kg/injection, schedule: Q01DX009 (ip), vehicle: saline): 0 of 6

CC(C)C[CH2][Pb]([Cl])([CH2]CC(C)C)[CH2]CC(C)C
survivor count (T/C endpoint: mean survival time, dose: 100.0 mg/kg/injection, schedule: Q04DX003 (ip), vehicle: other): 0 of 6 | survivor count (T/C endpoint: mean survival time, dose: 200.0 mg/kg/injection, schedule: Q04DX003 (ip), vehicle: other): 0 of 6 | survivor count (T/C endpoint: mean survival time, dose: 400.0 mg/kg/injection, schedule: Q04DX003 (ip), vehicle: other): 0 of 6

N#Cc1cn(C2OC(CO)C(O)C2O)c2ncn3ncnc3c12 (centres undefined)
survivor count (T/C endpoint: mean survival time, dose: 200.0 mg/kg/injection, schedule: Q01DX005 (ip), vehicle: distilled water + Tween-80): 4 of 6 | survivor count (T/C endpoint: mean survival time, dose: 400.0 mg/kg/injection, schedule: Q01DX005 (ip), vehicle: distilled water + Tween-80): 0 of 6

CCCCNc1ccc2nnc(C)n2n1
survivor count (T/C endpoint: median survival time, dose: 200.0 mg/kg/injection, schedule: Q01DX005 (ip), vehicle: DMSO): 2 of 6 | survivor count (T/C endpoint: median survival time, dose: 400.0 mg/kg/injection, schedule: Q01DX005 (ip), vehicle: DMSO): 0 of 6 and 1 of 6 | survivor count (T/C endpoint: median survival time, dose: 800.0 mg/kg/injection, schedule: Q01DX005 (ip), vehicle: DMSO): 0 of 6

[Cl][Pt+2][Cl].[NH-]C1CCCC1.[NH-]C1CCCC1
T/C (T/C endpoint: mean survival time, dose: 40.0 mg/kg/injection, schedule: Q01DX009 (ip), vehicle: Klucel (hydroxypropylcellulose) (HPC)): 125 % of control | T/C (T/C endpoint: mean survival time, dose: 80.0 mg/kg/injection, schedule: Q01DX009 (ip), vehicle: Klucel (hydroxypropylcellulose) (HPC)): 127 % of control | T/C (T/C endpoint: mean survival time, dose: 160.0 mg/kg/injection, schedule: Q01DX009 (ip), vehicle: Klucel (hydroxypropylcellulose) (HPC)): 139 % of control

Nc1cccc(OCC(O)CN2CCN(c3ccccc3)CC2)c1 (centres undefined)
T/C [5]: 130 % of control [2 of 3 alive] | survivor count [6]: 1 of 3

Nc1ncn(C2OC(COC(=O)c3ccccc3)C(OC(=O)c3ccccc3)C2OC(=O)c2ccccc2)c(=O)n1 (centres undefined)
T/C (T/C endpoint: mean survival time, dose: 1.56 mg/kg/injection, schedule: Q01DX009 (ip), vehicle: saline): 129 % of control | T/C (T/C endpoint: mean survival time, dose: 3.12 mg/kg/injection, schedule: Q01DX009 (ip), vehicle: saline): 125 and 137 % of control | survivor count [9]: 5 of 6 and 6 of 6

O=[N+]1C=CC(=NN=c2ccn([O-])cc2)C=C1
survivor count [6]: 3 of 3

O=C1C=C(N2CC2)C(=O)C(N2CC2)=C1N1CC1
T/C (T/C endpoint: median survival time, dose: 25.0 micrograms/kg/injection, schedule: Q01DX009 (ip), vehicle: saline with Tween-80): 148 % of control | T/C (T/C endpoint: median survival time, dose: 50.0 micrograms/kg/injection, schedule: Q01DX009 (ip), vehicle: saline): 128 % of control | T/C (T/C endpoint: median survival time, dose: 100.0 micrograms/kg/injection, schedule: Q01DX009 (ip), vehicle: saline with Tween-80): 129 % of control | T/C (T/C endpoint: median survival time, dose: 100.0 micrograms/kg/injection, schedule: Q01DX009 (ip), vehicle: saline): 142 % of control [1 of 1 alive] | T/C (T/C endpoint: median survival time, dose: 200.0 micrograms/kg/injection, schedule: Q01DX009 (ip), vehicle: saline): 147 % of control

CCCCNC(C)(C)C(SSSC(c1cccs1)C(C)(C)NCCCC)c1cccs1 (centres undefined)
survivor count (T/C endpoint: mean survival time, dose: 400.0 mg/kg/injection, schedule: Q01DX009 (ip), vehicle: saline sonified): 4 of 6

CN(C)S(=O)(=O)c1ccccc1C1(O)c2ccccc2-c2ccccc21
survivor count [2]: 6 of 6 | survivor count [10]: 6 of 6

S=c1[n-]c2ccccc2s1.S=c1[n-]c2ccccc2s1.[Cl][Pt+2][Cl]
survivor count [10]: 0 of 4

NCC1CCCC1N (centres undefined)
survivor count (T/C endpoint: mean survival time, dose: 100.0 mg/kg/injection, schedule: Q01DX001 (ip), vehicle: saline): 3 of 6 | survivor count [7]: 2 of 6 | survivor count [8]: 0 of 6

O=C(O)C(Cl)(c1ccccc1)C(Cl)c1ccccc1 (centres undefined)
survivor count [10]: 1 of 6

Nc1nc2c(ncn2-c2ccccc2F)c(=O)[nH]1
survivor count (T/C endpoint: mean survival time, dose: 200.0 mg/kg/injection, schedule: Q01DX001 (ip), vehicle: saline with Tween-80): 3 of 6 | survivor count [4]: 1 of 6

O=C(Nc1ccccc1C(=O)O)c1cc([N+](=O)[O-])cc([N+](=O)[O-])c1
survivor count [2]: 3 of 6 | survivor count [3]: 0 of 6 and 5 of 10

CCCCCCCCCCCCCCCCCC[N+]1(C)CCOCC1
survivor count (T/C endpoint: mean survival time, dose: 50.0 mg/kg/injection, schedule: Q04DX002 (ip), vehicle: Klucel (hydroxypropylcellulose) (HPC)): 3 of 3 | survivor count (T/C endpoint: mean survival time, dose: 100.0 mg/kg/injection, schedule: Q04DX002 (ip), vehicle: Klucel (hydroxypropylcellulose) (HPC)): 1 of 3 | survivor count (T/C endpoint: mean survival time, dose: 200.0 mg/kg/injection, schedule: Q04DX002 (ip), vehicle: Klucel (hydroxypropylcellulose) (HPC)): 0 of 3 | survivor count (T/C endpoint: mean survival time, dose: 400.0 mg/kg/injection, schedule: Q04DX002 (ip), vehicle: Klucel (hydroxypropylcellulose) (HPC)): 0 of 3
